Reference: article PMC8236860, “Regulation of Dual Activity of Ascorbate Peroxidase 1 From Arabidopsis thaliana by Conformational Changes and Posttranslational Modifications” (Frontiers in Plant Science, 2021)
These are yes or no findings as the source states them, for the method shown. Some binding calls cover weakened binding; strength is not graded here.

Biological target: AtAPX1 protein, endogenous in Arabidopsis thaliana (Col-0) seedlings (Arabidopsis thaliana (endogenous in Col-0 seedlings)) (UniProt Q05431)
Test: native gel or EMSA; 10% native-PAGE of 20 μg total protein of Col-0 seedlings, western blot with anti-AtAPX1 antibody; control, heat stress (42°C, 1 h), salt stress (200 mM NaCl, 6 h) and recovery

binding: binds
B1: AtAPX1 protein, endogenous in Arabidopsis thaliana (Col-0) seedlings (enzyme, UniProt Q05431 1-250)
chain: MTKNYPTVSEDYKKAVEKCRRKLRGLIAEKNCAPIMVRLAWHSAGTFDCQSRTGGPFGTMRFDAEQAHGANSGIHIALRLLDPIREQFPTISFADFHQLAGVVAVEVTGGPDIPFHPGREDKPQPPPEGRLPDATKGCDHLRDVFAKQMGLSDKDIVALSGAHTLGRCHKDRSGFEGAWTSNPLIFDNSYFKELLSGEKEGLLQLVSDKALLDDPVFRPLVEKYAADEDAFFADYAEAHMKLSELGFADA
